Primary screen of a compound library

Source: ChEMBL document CHEMBL3988442, “University of Dundee, Small-Polar-MMV Screening Library” (2021).

Values are the deposited “Percent Effect”, in %. The record does not define 0% and 100%; most values in the screen are far below 50% and negative numbers occur (in some assays of this library far below -100). Compounds were drawn at random from those tested, without regard to their results. Two or more numbers in one place are separate tests of the same structure; such repeats can differ widely.

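Viability assay of Plasmodium falciparum sporozoites; the read-out is not stated. The concentration is filed as 10 mM, unlikely as a test dose, so the dose is not known. Higher reads as lower viability (inferred: compounds with an IC50 in retests scored well above the rest). Strong results were mostly tested again. About 34,000 compounds were tested under these conditions; 0.84% (about 280) showed 50% or more at least once.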

SMILES | Percent Effect
Cc1ccc(F)c(OC2(C(=O)O)CCN(C(=O)N3CCCC3)CC2)c1 | -4.479
CN(C)c1nc2sc(C(=O)N3CCN(C(=O)OC(C)(C)C)CC3)cc2s1 | 1.471
CCN(CC)C(CNC(=O)c1ccc(S(C)(=O)=O)cc1)c1ccco1 (centres unmarked) | 8.794
Cn1cnnc1C1CCCN(C(=O)NCCCn2cccn2)C1 (centres unmarked) | -0.716
CCOCCN1CCN(Cc2nc(CC(C)C)no2)CC1 | -1.306
COc1ccc(CN(C)Cc2cccc(C#N)c2)c(OC)c1 | 6.509
CN(C)[C@@H]1CCN(CC2CC2)[C@H]1Cc1cnn(C)c1.O=C(O)C(F)(F)F.O=C(O)C(F)(F)F | 5.928
CC(NC(=O)CSCC#N)c1cccc(NC(=O)c2ccccc2)c1 (centres unmarked) | 6.601
Cc1cc(C)nc(CCNC(=O)C(c2ccc(F)cc2)N(C)C)n1 (centres unmarked) | -1.216
CCN(Cc1nc(Cc2ccccc2)no1)C1CC1 | -0.5372
CC1CN(C)CCN1CC(=O)NCCOc1ccc(Cl)cc1 (centres unmarked) | -1.698
[H][C@]12CN(Cc3cccc(OC)c3F)C[C@]1([H])N(CCOC)C(=O)CO2 | 8.794
Cn1cnnc1C1CCCN(C(=O)COCc2ccccc2)C1 (centres unmarked) | -13.59
COCC1CN(c2ccncn2)Cc2cnn(CC3CCCC3)c21.O=C(O)C(F)(F)F.O=C(O)C(F)(F)F (centres unmarked) | -8.029
[H][C@@]12OCCC[C@]1([H])N(C(=O)c1cnc(C)cn1)C[C@H]2NS(C)(=O)=O | -16.53
O=C(c1cccc2cc[nH]c12)N1CCC2(CCOC2)C1 (centres unmarked) | 2.842
CC(C(=O)N(Cc1ccccc1)CC(F)(F)F)S(C)(=O)=O (centres unmarked) | -3.441
Cc1nc(CNC(=O)c2cc(COc3cccc(F)c3)[nH]n2)n[nH]1 | -0.6055
[H][C@@]12CNC[C@]1([H])N(C(=O)c1cccnc1)CCO2 | 4.904
COCC(=O)NC(CC(C)C)c1nc2cccnc2n1C (centres unmarked) | 12.08
COc1ccc(OC)c(C2C3=C(COC3=O)Nc3[nH]nc(C)c32)c1 (centres unmarked) | 3.947
CC(C)NC(=O)[C@@H]1CN(C)C[C@]12COc1ccc(F)cc1C2=O | 7.853
CCn1nc(C(C)C)cc1C(=O)NCCCOC | -17.47
COc1ccc(NC(=O)CCN2CC=C(c3cnn(C)c3)CC2)c(C)c1 | 1.298
Cc1noc(C)c1C(=O)NCC(O)c1ccc(F)cc1F (centres unmarked) | -7.769
[H][C@]12CC[C@]([H])(CN(Cc3cccnc3N)C1)N(CC1CC1)C2=O | 5
Cl.Clc1ccc(-c2ccc(C3CNCCO3)nc2)cc1 (centres unmarked) | 88.25 and 80.55 and 85.69
CCN(C)C(=O)c1ccc2c(c1)C(c1nc[nH]n1)CN2S(C)(=O)=O (centres unmarked) | -13.14
Cn1cc(N2CC3(CCN(C(=O)c4cccn4C)CC3)OCC2=O)cn1 | 3.179
CNc1cncc(C2CCCN2C(=O)c2ccc3nc(C)[nH]c3c2)n1 (centres unmarked) | -0.1674
COCCOc1ncccc1C(=O)Nc1ccc(-n2cncn2)c(F)c1 | -4.287
Cc1nc(C2(NCC(=O)NC(=O)NCc3cccs3)CCCCC2)no1 | -8.906
O=C1CN(C(=O)C2CCCOC2)CCN1Cc1ccc(Cl)cc1 (centres unmarked) | -9.414
[H][C@]12CCC[C@@]1(COCc1csc(C)n1)CN(Cc1cnn(C)c1)C2 | 2.977
CCN(Cc1ccc2c(c1)OCO2)S(=O)(=O)N(C)C(C)C | 1.671
Cn1nccc1C(=O)N1CCOC(Cc2cccnc2)C1 (centres unmarked) | -7.036
COCC1CN(Cc2cc(C)on2)Cc2cn(C)nc21 (centres unmarked) | -10.28
CCCS(=O)(=O)N1CCC(NC(=O)c2cc(C)c(CC)s2)CC1 | 4.077
CCn1cc(CN2CCCN(C(=O)c3ccoc3C)CC2)cn1 | 0.5102
CC(C)(C)CN(CCC#N)C(=O)Cc1ccc(-n2cnnn2)cc1 | 1.207
Cc1ncc(CN2CCOC(CN(C)c3cccnn3)C2)s1 (centres unmarked) | -23.19
CC(C)CC(=O)N1CCC(Nc2nc(O)cc(-c3ccsc3)n2)CC1 | 14.33
O=C(c1ccc(Cl)c(Cl)c1)N1CCCC(n2cncn2)C1 (centres unmarked) | 5.263
CC(C)(CNC(=O)Nc1ccc(S(=O)(=O)C(F)F)cc1)N1CCOCC1 | -18.76
COCC(C)NC(=O)c1cc(Br)c2c(c1)OCCO2 (centres unmarked) | -11.03
O=C(O)C(F)(F)F.[H][C@@]12OCCN(c3ncc(F)cn3)[C@@]1([H])CC[C@H]2OCC(=O)N(C)C | 3.152
c1ccc(CN2CCCC(Cn3cncn3)C2)nc1 (centres unmarked) | 7.276
Cc1cc(C)nc(C2CCN(C3CCOCC3)C2)n1 (centres unmarked) | -2.971
Cc1cnn(C(C)C2CC2)c1NC(=O)c1ccco1 (centres unmarked) | -4.079
CCCC(=O)N1CCCC(c2cc3cccnc3c(O)n2)C1 (centres unmarked) | -7.93
CCCN1CCC[C@]2(CCC(=O)N2Cc2ccncc2)[C@H]1CC.O=C(O)C(F)(F)F.O=C(O)C(F)(F)F | -2.364
Cn1cc(-c2noc(C3(C)CCOCC3)n2)cn1 | -6.548
O=C(CCN1CCCC1=O)NCc1cccnc1Oc1ccccc1 | -15.81
CNc1cncc(C2CCCN2S(=O)(=O)c2cccc(F)c2)n1 (centres unmarked) | -2.903
CC(=O)N1CCCC1c1nc(C)cc(-c2ccc(F)cc2)n1 (centres unmarked) | 0.5234
Cn1cc(C[C@H]2[C@@H](OCC3CC3)CCN2C(=O)c2ccc[nH]2)cn1 | 13.63
CC(C)c1csc(C2CCCN(C(=O)c3ccc(=O)n(C)n3)C2)n1 (centres unmarked) | -17.99
c1cnc2c(CN3CCCCC3c3ccncn3)cnn2c1 (centres unmarked) | 2.992
CC(C)c1noc(C(C)N2CCN(CCO)CC2)n1 (centres unmarked) | -3.68
COc1ccccc1OCCN1CCCC(c2cc(C(N)=O)[nH]n2)C1 (centres unmarked) | 3.186
CNS(=O)(=O)c1cccc(CNc2ccc(C(F)(F)F)nn2)c1 | 8.96
Cc1nn(C)c(N(C)C)c1CNCc1ccc(OCC(N)=O)cc1.Cl | -6.373
COc1ccc(Nc2nc(N)c(C(C)=O)s2)cc1Cl | -11.53
Cc1nc(-c2ccncc2)ncc1C(C)NC(=O)Cn1ccccc1=O (centres unmarked) | -15.23
[H][C@@]12CCN(C(=O)Cc3ccccc3F)C[C@]1(COC)CCO2 | 0.8419
CN(Cc1ccc(F)cc1)CC1(O)CCN(C(=O)c2ccn(C)n2)C1 (centres unmarked) | 7.928
Cc1cc(C(=O)N2CCCC(c3cc(C(F)(F)F)[nH]n3)C2)on1 (centres unmarked) | -0.2881
NC(=O)c1c(NC(=O)C2CCCO2)sc2c1CCc1ccccc1-2 (centres unmarked) | -18.55 and -11.08
Cc1cnn(CC(C)NCc2cccnc2)c1 (centres unmarked) | -2.807
COc1cccc(CC(=O)N2CCCC2c2nc(C)c(F)c(O)n2)c1 (centres unmarked) | 11.52
COCC1CN(S(=O)(=O)c2cccc(F)c2)Cc2nccn2C1 (centres unmarked) | -2.194
O=C(O)C(F)(F)F.O=C(O)C(F)(F)F.[H][C@@]12CCN(Cc3cccc(C)n3)[C@@]1([H])CCN2C(=O)Cc1ccsc1 | -12.15
Cc1nn(C)c(C)c1C(C(=O)O)N1CC=C(c2ccccc2)CC1 (centres unmarked) | 24.61 and 30.96 and 46.33
COc1ncccc1CNC(=O)NCCNS(C)(=O)=O | 2.695
CS(=O)(=O)NCCC(=O)Nc1cnn(-c2ccccc2Cl)c1 | 19.62
O=C(O)C(F)(F)F.[H][C@@]12CCN(c3cnccn3)C[C@]1([H])CN(C(=O)COCC)C2 | 0
COCC(=O)N1CCC(c2nccnc2Oc2cccnc2C)CC1 | -5.183
Cc1ccccc1C(=O)NCCCN1CCc2ccccc2C1 | 9.004
O=C(NCc1ccnc(O)c1)NCC1CCCC1 | -9.677
Cn1ccnc1CN1CCC2(CC1)CCN(c1cncnc1)C2=O.O=C(O)C(F)(F)F | 10.5
CC(C)N1CCCC1c1cc(C(F)(F)F)[nH]n1 (centres unmarked) | -7.039
COc1ccnc(NC(Cc2ccccc2)C(=O)N(C)C)n1 (centres unmarked) | -0.1754
CCc1cc2c(N3CCCC(c4cc(C(N)=O)[nH]n4)C3)ncnc2s1 (centres unmarked) | -4.386
CN(C)S(=O)(=O)N1CCC(c2c(C(N)=O)sc3ccccc23)C1 (centres unmarked) | 15.6
Cc1nn(C)c(N(C)C)c1CNCc1cccnc1-n1cncn1.Cl | -2.625
Cc1ncsc1-c1nnc(C2CCN(CC3CCCCC3)CC2)o1 | -2.591
O=C(NCCc1nc(-c2ccccn2)no1)c1ccc(C2CCCO2)s1 (centres unmarked) | 37.28 and 33.04 and 42.65
CCS(=O)(=O)N1CCC2(CCN(Cc3ccc(C)o3)C2)C1 (centres unmarked) | 3.038
O=C(CCS(=O)(=O)C1CCCC1)NCc1ccccc1Cn1cncn1 | -18.04
Cc1nn(C)c(Cl)c1C1CCCN1C(=O)c1ccc2c(c1)COC2 (centres unmarked) | -1.156
CC(=O)N1CCc2nnc(C3CCCCN3CC3CC3)n2CC1 (centres unmarked) | 6.575
Cc1ccsc1C(=O)N1CCc2ncc(CN(C)C)n2CC1.O=C(O)C(F)(F)F | 3.152

The last 11 entries again:

{"smiles": "COc1ccnc(NC(Cc2ccccc2)C(=O)N(C)C)n1", "stereo": "centres unmarked", "Percent Effect": -0.1754}
{"smiles": "CCc1cc2c(N3CCCC(c4cc(C(N)=O)[nH]n4)C3)ncnc2s1", "stereo": "centres unmarked", "Percent Effect": -4.386}
{"smiles": "CN(C)S(=O)(=O)N1CCC(c2c(C(N)=O)sc3ccccc23)C1", "stereo": "centres unmarked", "Percent Effect": 15.6}
{"smiles": "Cc1nn(C)c(N(C)C)c1CNCc1cccnc1-n1cncn1.Cl", "Percent Effect": -2.625}
{"smiles": "Cc1ncsc1-c1nnc(C2CCN(CC3CCCCC3)CC2)o1", "Percent Effect": -2.591}
{"smiles": "O=C(NCCc1nc(-c2ccccn2)no1)c1ccc(C2CCCO2)s1", "stereo": "centres unmarked", "Percent Effect": "37.28 and 33.04 and 42.65"}
{"smiles": "CCS(=O)(=O)N1CCC2(CCN(Cc3ccc(C)o3)C2)C1", "stereo": "centres unmarked", "Percent Effect": 3.038}
{"smiles": "O=C(CCS(=O)(=O)C1CCCC1)NCc1ccccc1Cn1cncn1", "Percent Effect": -18.04}
{"smiles": "Cc1nn(C)c(Cl)c1C1CCCN1C(=O)c1ccc2c(c1)COC2", "stereo": "centres unmarked", "Percent Effect": -1.156}
{"smiles": "CC(=O)N1CCc2nnc(C3CCCCN3CC3CC3)n2CC1", "stereo": "centres unmarked", "Percent Effect": 6.575}
{"smiles": "Cc1ccsc1C(=O)N1CCc2ncc(CN(C)C)n2CC1.O=C(O)C(F)(F)F", "Percent Effect": 3.152}